Measured values published in patent US20050245498A1, “Sterically-awkward beta-lactamase inhibitors” (priority 2002, published 2005).
Some entries share one result that the patent states for a list of compounds. For some of these results: For at least one compound, name, drawing or mass did not settle the structure.

The chains behind the UniProt entries cited, without tags or fusion partners. Residues count along the entry.
UniProt P00811, 20-377: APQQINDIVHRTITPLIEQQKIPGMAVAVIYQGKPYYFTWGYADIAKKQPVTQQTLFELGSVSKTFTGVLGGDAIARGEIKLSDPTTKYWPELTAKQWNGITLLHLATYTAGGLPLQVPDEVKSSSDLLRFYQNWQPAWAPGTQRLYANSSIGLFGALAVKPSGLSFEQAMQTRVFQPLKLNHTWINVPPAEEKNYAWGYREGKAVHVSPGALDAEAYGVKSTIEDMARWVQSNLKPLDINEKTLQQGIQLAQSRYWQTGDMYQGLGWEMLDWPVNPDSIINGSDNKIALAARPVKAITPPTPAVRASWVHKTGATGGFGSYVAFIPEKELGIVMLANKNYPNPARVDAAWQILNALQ

How the values were obtained:
AmpC β-lactamase = AmpC β-lactamase (Escherichia coli, UniProt P00811); details: for kcat fold reduced compared to analogous substrates: ATMO-bearing β-lactam vs analogous substrate
Method: Escherichia coli. AmpC β-lactamase was expressed and purified to homogeneity as previously described. The AmpC-catalyzed hydrolysis of the various β-lactams was monitored in an HP8453 UV/visible spectrophotometer. […] The reaction buffer used during the assays was 50 mM tris hydroxymethyl aminomethane hydrochloride (Fisher, Fair Lawn N.J.) at pH 7 in doubly-deionized water. kcat and KM values were determined at an enzyme concentration of 1.75 nM, with enzyme concentration determined, from more concentrated stocks, based on an ε280 of 0.098 μM^−1 cm^−1. […] Except for compounds synthesized for this study (ATMO-penicillin, ATMO-loracarbef), all compounds were used as supplied from the manufacturers without further purification.
Enzymology. The AmpC-catalyzed hydrolysis of the β-lactams cefotaxime, ATMO-penicillin, and ATMO-loracarbef (FIG. 1B) were monitored by UV-vis spectroscopy (Table 1).

[1] = system: E. coli expressing AmpC β-lactamase; format: cell-based; details: even for bacteria that express β-lactamases
Method: Microbiology. Serial dilution assays in ligand culture were performed to examine the efficacy of these awkward β-lactams against clinically relevant pathogens grown in liquid culture (Table 3). The compounds were dissolved in KPi or tris hydroxymethyl aminomethane hydrochloride to a concentration of 20-50 mM, and serial dilutions were performed into Luria Broth (Difco, Detroit Mich.). Each broth solution was then inoculated with bacterial cells from an overnight culture that had been diluted to give an inoculum concentration of approximately 5×10^5 CFU/mL.

Compound | kcat fold reduced compared to analogous substrates (AmpC β-lactamase) | WIC values in cell culture studies [1] | kcat fold faster than ATMO-bearing analogs (AmpC β-lactamase; substrate vs ATMO-bearing analog)
CO/N=C(\C(=O)N[C@@H]1C(=O)N2C(C(=O)O)=C(COC(C)=O)CS[C@H]12)c1csc(N)n1 [Cefotaxime, cefotaxime] | 10,000- to 100,000 fold | ≤ 1 µg/mL | 
CC1(C)S[C@@H]2[C@H](NC(=O)Cc3ccccc3)C(=O)N2[C@H]1C(=O)O [Penicillin G, penicillin G] |  |  | 10^4-10^5 fold
CO/N=C(\C(=O)N[C@@H]1C(=O)N2[C@@H]1SC(C)(C)[C@@H]2C(=O)O)c1csc(N)n1 [ATMO-penicillin] | 10,000- to 100,000 fold |  | 
